Laboratory results reported in the supplement of paper PMC7024190.
The other results are listed elsewhere or left out. This data set is noisy: repeats of one test often differ as much as different tests do.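 Human embryonic kidney cells were transiently transfected with a plasmid bearing a Renilla luciferase gene under the HSV-TK promoter. This first-round screen tests roughly ten thousand compounds for ones that increase reporter output.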

Tested on: HEK 293FT
Assay: log relative Renilla luciferase luminescence (reporter expression vs reference, reference not stated) (log (base not stated)); higher = higher recombinant reporter expression
Settings: 10 µM; time after transfection 48 h

Which log does the source give for `C[C@@H](O)[C@H]1C(=O)N2C(C(=O)O)=C(S[C@@H]3CN[C@H](C(=O)N(C)C)C3)[C@H](C)[C@H]12` here?
Its log is 0.103.

Which log does the source give for `Cc1cccc(C)c1NC(=O)C1CCCCN1C` (stereo not given) here?
The log was 0.109.

Which log does the source give for `CC(C)(C)NC(=O)[C@H]1CC[C@H]2[C@@H]3CC[C@H]4NC(=O)C=C[C@]4(C)[C@H]3CC[C@]12C` here?
The log was -0.247.

How did the log turn out when `CCN1CC(CCN2CCOCC2)C(c2ccccc2)(c2ccccc2)C1=O` (stereo not given) was run?
Its log is 0.172.

How did the log turn out when `CC(=O)CCCCn1cnc2c1c(=O)n(C)c(=O)n2C` was run?
Its log is 0.106.

For `CC(C)(C)NC(=O)[C@@H]1CN(Cc2cccnc2)CCN1C[C@@H](O)C[C@@H](Cc1ccccc1)C(=O)N[C@H]1c2ccccc2C[C@H]1O`, which log is on record?
The log was -0.145.

Which log does the source give for `O=C(O)/C=C/c1ccc(Cn2ccnc2)cc1` here?
The log was -0.117.

Which log does the source give for `COc1cc2nc(N3CCN(C(=O)c4ccco4)CC3)nc(N)c2cc1OC` [Prazosin] here?
Its log is 0.192.

For `CCCc1nc(C(C)(C)O)c(C(=O)OCc2oc(=O)oc2C)n1Cc1ccc(-c2ccccc2-c2nnn[nH]2)cc1`, which log is on record?
The log was 0.0445.

How did the log turn out when `CCOC(=O)C1=C(C)NC(C)=C(C(=O)OC)C1c1cccc([N+](=O)[O-])c1` (stereo not given) was run?
Its log is -0.412.

`O=c1ncc(F)c[nH]1` [5-fluoro-2-pyrimidone] was tested. Which log did it give?
Its log is -0.0949.

For `COc1cc2c(cc1OC)C(=O)C(CC1CCN(Cc3ccccc3)CC1)C2` (stereo not given) [Donepezil], which log is on record?
The log was -0.491.

For `CCOc1cc(CC(=O)N[C@@H](CC(C)C)c2ccccc2N2CCCCC2)ccc1C(=O)O`, which log is on record?
The log was -0.13.

With `CCCCCCNC(=O)n1cc(F)c(=O)[nH]c1=O` as the molecule, how does the log read?
The log was 0.0407.

With `C[C@H](CCC(=O)O)[C@H]1CC[C@H]2[C@@H]3C(=O)C[C@@H]4CC(=O)CC[C@]4(C)[C@H]3CC(=O)[C@]12C` as the molecule, how does the log read?
The log was -0.0614.

`O=C1CC[C@@H](C(=O)N2CSC[C@H]2C(=O)O)N1` was tested. Which log did it give?
Its log is -0.0861.

`COc1ccc2c3c1O[C@H]1C[C@@H](O)C=C[C@@]31CCN(C)C2` [Galanthamine] was tested. Which log did it give?
Its log is 0.0946.

With `O=C(CCCN1CC=C(n2c(=O)[nH]c3ccccc32)CC1)c1ccc(F)cc1` as the molecule, how does the log read?
The log was -0.924.

For `CC(C)Oc1ccc2c(=O)c(-c3ccccc3)coc2c1`, which log is on record?
The log was -0.196.

With `COc1ccnc(C[S+]([O-])c2nc3cc(OC(F)F)ccc3[nH]2)c1OC` (stereo not given) as the molecule, how does the log read?
Its log is -0.0466.

For `Nc1ccn([C@H]2CC[C@@H](CO)O2)c(=O)n1`, which log is on record?
Its log is -0.294.

How did the log turn out when `CNCCCCOc1ccccc1Cc1ccccc1` [Bifemelane] was run?
Its log is 0.101.

Which log does the source give for `CCOC(=O)c1ncn2c1CN(C)C(=O)c1cc(F)ccc1-2` here?
Its log is -0.18.

How did the log turn out when `CCOC(=O)N1CCC(=C2c3ccc(Cl)cc3CCc3cccnc32)CC1` was run?
The log was 0.101.

With `CC(C)(C)NC(=O)[C@@H]1C[C@@H]2CCCC[C@@H]2CN1C[C@@H](O)[C@H](Cc1ccccc1)NC(=O)[C@H](CC(N)=O)NC(=O)c1ccc2ccccc2n1` as the molecule, how does the log read?
The log was -0.35.

For `NC1CCN(c2nc3c(cc2F)c(=O)c(C(=O)O)cn3-c2ccc(F)cc2F)C1` (stereo not given), which log is on record?
Its log is -0.0466.

Which log does the source give for `O=C1[C@H]2CCCC[C@H]2C(=O)N1CCCCN1CCN(c2nsc3ccccc23)CC1` here?
Its log is 0.393.

How did the log turn out when `CCCCC(=O)N(Cc1ccc(-c2ccccc2-c2nnn[nH]2)cc1)[C@H](C(=O)O)C(C)C` was run?
Its log is -0.0473.

With `CN1CCC(=C2c3ccccc3CCc3sccc32)CC1` [Pizotyline] as the molecule, how does the log read?
The log was -0.743.

`Cc1cccc(CCN2CCC(C(=O)c3ccc(NS(C)(=O)=O)cc3)CC2)n1` was tested. Which log did it give?
The log was 0.0664.

`CCc1nn(CCCN2CCN(c3cccc(Cl)c3)CC2)c(=O)n1CCOc1ccccc1` [Nefazodone] was tested. Which log did it give?
Its log is -0.394.

How did the log turn out when `CN(CCOc1ccc(NS(C)(=O)=O)cc1)CCc1ccc(NS(C)(=O)=O)cc1` was run?
Its log is -0.108.

For `Cc1cc2c(s1)Nc1ccccc1N=C2N1CCN(C)CC1`, which log is on record?
Its log is -0.0381.

`Clc1ccccc1C(c1ccccc1)(c1ccccc1)n1ccnc1` was tested. Which log did it give?
The log was -0.474.

How did the log turn out when `C[C@@H](c1ncncc1F)[C@](O)(Cn1cncn1)c1ccc(F)cc1F` was run?
Its log is -0.142.

With `OCc1cccnc1` as the molecule, how does the log read?
The log was 0.078.

With `Nc1nc(O)c2ncn(CCC(CO)CO)c2n1` as the molecule, how does the log read?
The log was -0.471.

With `Cc1c(O)c(=O)ccn1C` as the molecule, how does the log read?
The log was 0.156.

Which log does the source give for `Nc1nc2ccc(OC(F)(F)F)cc2s1` [Riluzole] here?
Its log is 0.0932.

For `c1ccc(-c2ccc(C(c3ccccc3)n3ccnc3)cc2)cc1` (stereo not given), which log is on record?
Its log is -0.306.
